# Test results as given in PMC12279946.
# Construct, isoform or probe ends are uncertain for at least one entry. At least one verdict rests on a figure or table, not on a statement of the authors. Protein sequences can lack the tags named with them.
# Target: T1, SprT-BR-L99S (UniProt Q9H040)
# T1 sequence (looked up): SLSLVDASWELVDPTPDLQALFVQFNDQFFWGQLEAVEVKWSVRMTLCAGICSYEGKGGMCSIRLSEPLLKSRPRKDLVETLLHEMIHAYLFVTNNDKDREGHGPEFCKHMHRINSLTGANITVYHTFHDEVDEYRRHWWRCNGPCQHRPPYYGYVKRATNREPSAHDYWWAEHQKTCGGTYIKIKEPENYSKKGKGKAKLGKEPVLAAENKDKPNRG
# Assay: NMR 1H,15N-HSQC
# Settings: 200 uM DNA + 500 uM Ub1, additional effect of Ub1 virtually absent; NMR: 20 mM HEPES/KOH pH 7.2, 150 mM KCl, 10% D2O, 308 K; 100 uM protein, 2x dsDNA, 5x Ub1; recombinant protein; residues 28-245
sequence,measurement,value
CCTTGCTAGGACATC (double strand) [15-bp dsDNA (NMR)],binding result,binds
